Experimental data published in article PMC6957511.

Chains of the proteins cited; added tags and fusions are not shown. Lines headed by an entry give the natural chain unless they say otherwise; changes in a name come on top.
UniProt Q8C0J2: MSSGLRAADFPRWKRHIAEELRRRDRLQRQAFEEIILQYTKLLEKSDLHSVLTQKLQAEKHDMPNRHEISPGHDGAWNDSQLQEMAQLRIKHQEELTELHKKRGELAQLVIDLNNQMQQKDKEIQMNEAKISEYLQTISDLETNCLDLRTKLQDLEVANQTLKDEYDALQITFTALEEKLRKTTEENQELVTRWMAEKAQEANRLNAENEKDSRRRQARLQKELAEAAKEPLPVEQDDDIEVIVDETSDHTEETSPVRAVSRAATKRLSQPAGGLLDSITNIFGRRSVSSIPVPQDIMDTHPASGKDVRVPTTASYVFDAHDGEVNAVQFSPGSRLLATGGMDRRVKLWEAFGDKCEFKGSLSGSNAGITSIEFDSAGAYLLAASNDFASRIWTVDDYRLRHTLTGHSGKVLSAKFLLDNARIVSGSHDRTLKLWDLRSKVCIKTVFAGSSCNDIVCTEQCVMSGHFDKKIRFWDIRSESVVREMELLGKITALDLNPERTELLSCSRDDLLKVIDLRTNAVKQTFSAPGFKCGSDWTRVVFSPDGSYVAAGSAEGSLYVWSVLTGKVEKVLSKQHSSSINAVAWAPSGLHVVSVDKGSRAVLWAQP

Target: GFP-Atg16L1 (mouse Atg16L1, full length) (mouse) (UniProt Q8C0J2)
Assay: co-IP; lysates of 293T cells co-expressing the GFP-tagged and 3Myc-tagged proteins; GFP fusion captured with GST-GFP-nanobody on glutathione Sepharose 4B, 2 h at 4 °C; wash buffer TBS/5 mM MgCl2, 1 mM EDTA, 0.05% NP-40; immunoblot

binding: no binding
B1: NDP52-3Myc (protein, UniProt Q13137 1-446)
chain: MEETIKDPPTSAVLLDHCHFSQVIFNSVEKFYIPGGDVTCHYTFTQHFIPRRKDWIGIFRVGWKTTREYYTFMWVTLPIDLNNKSAKQQEVQFKAYYLPKDDEYYQFCYVDEDGVVRGASIPFQFRPENEEDILVVTTQGEVEEIEQHNKELCKENQELKDSCISLQKQNSDMQAELQKKQEELETLQSINKKLELKVKEQKDYWETELLQLKEQNQKMSSENEKMGIRVDQLQAQLSTQEKEMEKLVQGDQDKTEQLEQLKKENDHLFLSLTEQRKDQKKLEQTVEQMKQNETTAMKKQQELMDENFDLSKRLSENEIICNALQRQKERLEGENDLLKRENSRLLSYMGLDFNSLPYQVPTSDEGGARQNPGLAYGNPYSGIQESSSPSPLSIKKCPICKADDICDHTLEQQQMQPLCFNCPICDKIFPATEKQIFEDHVFCHSL

No constants are given. Whether binding was seen depends on the method and setting. Binding seen in cells or lysates may run through a third protein. Sequences can lack the tags named with a protein.
